No constants are given. Whether binding was seen depends on the method and setting. Binding seen in cells or lysates may run through a third protein. Some binding calls cover weakened binding; strength is not graded here. Blank lines part the entries; values can stand above or below the molecule they belong to.
Experiments:
[1] = target: T1, retinoic acid receptor-γ (RARγ) (UniProt P13631); experiment: CoIP of Myc-RXRα and FLAG-RARγ in HeLa cells with or without compound A1 (10 µM, 3 hr) (FIG. 55)
T1 sequence (looked up): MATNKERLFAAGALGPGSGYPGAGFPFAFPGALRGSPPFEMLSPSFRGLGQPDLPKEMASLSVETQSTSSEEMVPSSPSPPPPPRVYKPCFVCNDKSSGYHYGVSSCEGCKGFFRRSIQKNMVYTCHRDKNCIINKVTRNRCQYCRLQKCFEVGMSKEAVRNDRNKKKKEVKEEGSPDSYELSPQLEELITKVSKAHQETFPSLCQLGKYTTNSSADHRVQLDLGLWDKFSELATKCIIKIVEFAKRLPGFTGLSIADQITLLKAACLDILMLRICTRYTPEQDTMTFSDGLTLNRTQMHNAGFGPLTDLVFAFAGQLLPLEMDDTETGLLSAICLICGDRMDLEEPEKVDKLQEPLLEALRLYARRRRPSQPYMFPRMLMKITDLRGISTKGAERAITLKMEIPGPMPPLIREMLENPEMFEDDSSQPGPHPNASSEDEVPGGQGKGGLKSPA

[2] = target: T2, regular 55 kDa RXRα (unmodified form) (human, UniProt P19793 1-462); experiment: CoIP of Myc-RXRα with FLAG-RARγ in HeLa cells, western blot (FIG. 1)
T2 construct: Non-shifted band of RXRα; Endogenous and tagged (Myc, FLAG, GST) forms are merged; also called regular RXRα; GST-RXRα (not phosphorylated)
T2 sequence: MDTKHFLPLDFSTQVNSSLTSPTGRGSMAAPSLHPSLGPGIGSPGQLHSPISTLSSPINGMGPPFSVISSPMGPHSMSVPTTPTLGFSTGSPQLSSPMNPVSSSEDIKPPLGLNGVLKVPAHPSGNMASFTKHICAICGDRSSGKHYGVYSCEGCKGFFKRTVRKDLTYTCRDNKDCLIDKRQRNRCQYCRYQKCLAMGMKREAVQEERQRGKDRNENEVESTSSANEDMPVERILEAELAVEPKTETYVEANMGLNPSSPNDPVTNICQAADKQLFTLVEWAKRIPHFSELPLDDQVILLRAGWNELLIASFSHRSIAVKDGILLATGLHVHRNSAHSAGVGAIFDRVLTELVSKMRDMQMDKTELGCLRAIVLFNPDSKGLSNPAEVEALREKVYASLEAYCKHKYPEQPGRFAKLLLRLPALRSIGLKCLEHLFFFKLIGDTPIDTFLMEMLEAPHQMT

[3] = target: T1, retinoic acid receptor-γ (RARγ); experiment: CoIP in HeLa cells (FIG. 5)
[4] = target: T1, retinoic acid receptor-γ (RARγ); experiment: CoIP in HeLa cells (FIG. 4)

- binding [1]: binds
Molecule: regular 55 kDa RXRα (unmodified form) (from UniProt P19793 1-462) (receptor)

- binding [3]: binds
B2: RXRα mutant lacking the N-terminal A/B domain (receptor)
chain: CAICGDRSSGKHYGVYSCEGCKGFFKRTVRKDLTYTCRDNKDCLIDKRQRNRCQYCRYQKCLAMGMKREAVQEERQRGKDRNENEVESTSSANEDMPVERILEAELAVEPKTETYVEANMGLNPSSPNDPVTNICQAADKQLFTLVEWAKRIPHFSELPLDDQVILLRAGWNELLIASFSHRSIAVKDGILLATGLHVHRNSAHSAGVGAIFDRVLTELVSKMRDMQMDKTELGCLRAIVLFNPDSKGLSNPAEVEALREKVYASLEAYCKHKYPEQPGRFAKLLLRLPALRSIGLKCLEHLFFFKLIGDTPIDTFLMEMLEAPHQMT
notes: also called RXRα-AA/B (so in the source)

The next lines start with the molecule.

B1: retinoic acid receptor-γ (RARγ) (receptor, UniProt P13631 1-454, looked up)
chain: MATNKERLFAAGALGPGSGYPGAGFPFAFPGALRGSPPFEMLSPSFRGLGQPDLPKEMASLSVETQSTSSEEMVPSSPSPPPPPRVYKPCFVCNDKSSGYHYGVSSCEGCKGFFRRSIQKNMVYTCHRDKNCIINKVTRNRCQYCRLQKCFEVGMSKEAVRNDRNKKKKEVKEEGSPDSYELSPQLEELITKVSKAHQETFPSLCQLGKYTTNSSADHRVQLDLGLWDKFSELATKCIIKIVEFAKRLPGFTGLSIADQITLLKAACLDILMLRICTRYTPEQDTMTFSDGLTLNRTQMHNAGFGPLTDLVFAFAGQLLPLEMDDTETGLLSAICLICGDRMDLEEPEKVDKLQEPLLEALRLYARRRRPSQPYMFPRMLMKITDLRGISTKGAERAITLKMEIPGPMPPLIREMLENPEMFEDDSSQPGPHPNASSEDEVPGGQGKGGLKSPA
- binding [2]: binds

B3: RXRα-LBD (ligand-binding domain of RXRα) (receptor)
chain: TSSANEDMPVERILEAELAVEPKTETYVEANMGLNPSSPNDPVTNICQAADKQLFTLVEWAKRIPHFSELPLDDQVILLRAGWNELLIASFSHRSIAVKDGILLATGLHVHRNSAHSAGVGAIFDRVLTELVSKMRDMQMDKTELGCLRAIVLFNPDSKGLSNPAEVEALREKVYASLEAYCKHKYPEQPGRFAKLLLRLPALRSIGLKCLEHLFFFKLIGDTPIDTFLMEMLEAPHQMT
notes: also called LBD of RXRα
- binding [4]: binds
